According to PubChem BioAssay AID328 (DTP/NCI, 2004):
The list is a part of this screen's results and no random one: it is rich in T/C values a quarter to a half above the control, in often repeated tests (any T/C) and in doses without a T/C. Further doses and runs are listed elsewhere. T/C is the treated group as % of the vehicle group. Some doses have a count of surviving animals in place of a T/C: the source files T/C as zero there, which appears to mark a toxic dose or a test without result, not a measured value. Some survivor counts are full or nearly so, which does not show that the dose was tolerated: survival well below the control is almost never listed, so the zero probably covers shortened survival too. Counts of survivors are from the toxicity check (mostly the fifth day) where no day follows; animals may have died later. Schedules are NCI's codes, read here as Q, the interval in days (D) or hours (H), X, the number of doses. Some doses were run more than once; the values are given in rising order. For survival time, the PubChem record calls one and a half times the control and up active, and a quarter to a half above the control has no call in these data; cut-offs in other NCI protocols can differ. Some T/C values carry the count of animals alive at the toxicity check (mostly the fifth day); without a count, all were alive then.

Test system: BDF1 mice, P388 leukemia ip, median survival T/C
Assay: NCI In Vivo Anticancer Drug Screen. Data for tumor model P388 Leukemia (intraperitoneal) in B6D2F1 (BDF1) mice
Conditions: T/C endpoint: median survival time, higher T/C = longer survival
Procedure, shortened: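 T/C = treated-group survival ÷ vehicle-control survival; tumour transplanted into mice before dosing.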

[1] = dose: 200.0 mg/kg/injection, schedule: Q01DX009 (ip), vehicle: saline with Tween-80

Question: For `CCc1ccc(/C=C/c2ccc(O)c3ncccc23)[n+](C)c1`, which T/C (dose: 1.1 mg/kg/injection, schedule: Q01DX009 (ip), vehicle: Klucel (hydroxypropylcellulose) (HPC)) is on record?
Answer: 137 % of control

Question: And the T/C (dose: 2.7 mg/kg/injection, schedule: Q01DX009 (ip), vehicle: Klucel (hydroxypropylcellulose) (HPC))?
Answer: 136 % of control

Question: And the T/C (dose: 4.0 mg/kg/injection, schedule: Q01DX009 (ip), vehicle: Klucel (hydroxypropylcellulose) (HPC))?
Answer: 130 % of control

Question: And the T/C (dose: 4.0 mg/kg/injection, schedule: Q01DX009 (ip), vehicle: saline with Tween-80)?
Answer: 137 % of control

Question: What about the T/C (dose: 6.25 mg/kg/injection, schedule: Q01DX009 (ip), vehicle: Klucel (hydroxypropylcellulose) (HPC)) of the same compound?
Answer: 129 % of control

Question: And the T/C (dose: 10.56 mg/kg/injection, schedule: Q01DX009 (ip), vehicle: saline with Tween-80)?
Answer: 145 % of control [5 of 6 alive]

Question: What about the T/C (dose: 12.5 mg/kg/injection, schedule: Q01DX009 (ip), vehicle: Klucel (hydroxypropylcellulose) (HPC)) of the same compound?
Answer: 133 % of control

Question: What about the T/C (dose: 16.0 mg/kg/injection, schedule: Q01DX009 (ip), vehicle: saline with Tween-80) of the same compound?
Answer: 141 % of control

Question: What about the T/C (dose: 16.0 mg/kg/injection, schedule: Q04DX003 (ip), vehicle: saline) of the same compound?
Answer: 136 % of control

Question: And the survivor count (dose: 24.0 mg/kg/injection, schedule: Q01DX009 (ip), vehicle: saline with Tween-80)?
Answer: 2 of 6

Question: And the T/C (dose: 25.0 mg/kg/injection, schedule: Q01DX009 (ip), vehicle: Klucel (hydroxypropylcellulose) (HPC))?
Answer: 133 % of control

Question: What about the survivor count (dose: 32.0 mg/kg/injection, schedule: Q01DX009 (ip), vehicle: Klucel (hydroxypropylcellulose) (HPC)) of the same compound?
Answer: 2 of 6

Question: And the T/C (dose: 32.0 mg/kg/injection, schedule: Q04DX003 (ip), vehicle: saline)?
Answer: 131 % of control

Question: And the survivor count (dose: 37.5 mg/kg/injection, schedule: Q01DX009 (ip), vehicle: Klucel (hydroxypropylcellulose) (HPC))?
Answer: 1 of 6 and 2 of 6

Question: What about the survivor count (dose: 45.0 mg/kg/injection, schedule: Q01DX009 (ip), vehicle: saline) of the same compound?
Answer: 0 of 6

Question: What about the survivor count (dose: 45.0 mg/kg/injection, schedule: Q04DX003 (ip), vehicle: saline) of the same compound?
Answer: 5 of 6

Question: What about the survivor count (dose: 70.0 mg/kg/injection, schedule: Q01DX009 (ip), vehicle: saline) of the same compound?
Answer: 0 of 6

Question: What about the survivor count (dose: 70.0 mg/kg/injection, schedule: Q04DX003 (ip), vehicle: saline) of the same compound?
Answer: 0 of 6

Question: What about the survivor count (dose: 105.0 mg/kg/injection, schedule: Q01DX009 (ip), vehicle: saline) of the same compound?
Answer: 0 of 6

Question: What about the survivor count (dose: 105.0 mg/kg/injection, schedule: Q04DX003 (ip), vehicle: saline) of the same compound?
Answer: 0 of 6

Question: How did the survivor count (dose: 50.0 mg/kg/injection, schedule: Q01DX009 (ip), vehicle: saline with Tween-80) turn out when `Clc1c(Cl)c2c(Cl)c(Cl)c1C[P+](c1ccccc1)(c1ccccc1)CC[P+](c1ccccc1)(c1ccccc1)Cc1c(Cl)c(Cl)c(c(Cl)c1Cl)C[P+](c1ccccc1)(c1ccccc1)CC[P+](c1ccccc1)(c1ccccc1)C2` was run?
Answer: 0 of 6

Question: What about the survivor count (dose: 100.0 mg/kg/injection, schedule: Q01DX009 (ip), vehicle: saline with Tween-80) of the same compound?
Answer: 0 of 6

Question: What about the survivor count [1] of the same compound?
Answer: 0 of 6

Question: Which T/C (dose: 0.78 mg/kg/injection, schedule: Q01DX009 (ip), vehicle: other) does the source give for `c1ccc2c(c1)ccc1c2c[n+](CCCCCCCC[n+]2cc3c4ccccc4ccc3c3ccccc32)c2ccccc12` here?
Answer: 141 % of control

Question: And the survivor count (dose: 3.13 mg/kg/injection, schedule: Q01DX009 (ip), vehicle: other)?
Answer: 2 of 4

Question: What about the survivor count (dose: 50.0 mg/kg/injection, schedule: Q01DX009 (ip), vehicle: other) of the same compound?
Answer: 3 of 4

Question: What about the survivor count (dose: 100.0 mg/kg/injection, schedule: Q01DX009 (ip), vehicle: other) of the same compound?
Answer: 0 of 4

Question: `CCC1(O)CC2CN(CCc3c([nH]c4ccccc34)C(C(=O)OC)(c3cc4c(cc3OC)N(C)C3C(O)(C(N)=O)C(O)C5(CC)C=CCN6CCC43C65)C2)C1` (stereo not drawn) (tested in a mixture with another compound) was tested. Which survivor count (dose: 3000.0 micrograms/kg/injection, schedule: Q04DX003 (ip), vehicle: saline) did it give?
Answer: 8 of 8

Question: Which T/C (dose: 0.5 mg/kg/injection, schedule: Q01DX009 (ip), vehicle: water) does the source give for `CC[C@@]1(O)C[C@H](OC2CC(N(C)C)C(OC3CC4OC5CC(=O)C(C)OC5OC4C(C)O3)C(C)O2)c2c(cc3c(c2O)C(=O)c2c(O)cccc2C3=O)[C@H]1C(=O)OC` (stereo partly drawn) here?
Answer: 133 % of control

Question: What about the T/C (dose: 1.0 mg/kg/injection, schedule: Q01DX009 (ip), vehicle: water) of the same compound?
Answer: 125 % of control

Question: What about the T/C (dose: 2.0 mg/kg/injection, schedule: Q01DX009 (ip), vehicle: water) of the same compound?
Answer: 136 % of control

Question: And the survivor count (dose: 8.0 mg/kg/injection, schedule: Q01DX009 (ip), vehicle: water)?
Answer: 2 of 6

Question: `FC(F)(F)c1ccc2c(c1)N(CCCN1CCN(CCN3CCCCC3)CC1)c1ccccc1S2` was tested. Which survivor count (dose: 100.0 mg/kg/injection, schedule: Q01DX009 (ip), vehicle: saline) did it give?
Answer: 0 of 6

Question: Which results are given for `CCCCOCCN1CCN(CCCN2c3ccccc3Sc3ccc(C(F)(F)F)cc32)CC1`?
Answer: T/C (dose: 12.5 mg/kg/injection, schedule: Q04DX003 (ip), vehicle: saline): 132 % of control; T/C (dose: 25.0 mg/kg/injection, schedule: Q04DX003 (ip), vehicle: saline): 139 % of control; T/C (dose: 50.0 mg/kg/injection, schedule: Q04DX003 (ip), vehicle: saline): 129 % of control

Question: Which survivor count (dose: 400.0 mg/kg/injection, schedule: Q01DX001 (ip), vehicle: saline with Tween-80) does the source give for `CSc1nc2n(Cc3c[nH]c(=O)[nH]c3=O)cc(C)cc-2c(=O)n1` here?
Answer: 2 of 6

Question: How did the survivor count [1] turn out when `O=C(O)CCNSc1ccccc1[N+](=O)[O-]` was run?
Answer: 2 of 6

Question: For `ClCc1ccc(CCl)cc1`, which T/C (dose: 14.06 mg/kg/injection, schedule: Q01DX009 (ip), vehicle: Klucel (hydroxypropylcellulose) (HPC)) is on record?
Answer: 125 % of control

Question: And the T/C (dose: 28.12 mg/kg/injection, schedule: Q01DX009 (ip), vehicle: Klucel (hydroxypropylcellulose) (HPC))?
Answer: 140 % of control

Question: What about the survivor count (dose: 56.25 mg/kg/injection, schedule: Q01DX009 (ip), vehicle: Klucel (hydroxypropylcellulose) (HPC)) of the same compound?
Answer: 6 of 6

Question: What about the survivor count (dose: 112.5 mg/kg/injection, schedule: Q01DX009 (ip), vehicle: Klucel (hydroxypropylcellulose) (HPC)) of the same compound?
Answer: 5 of 6

Question: What about the survivor count (dose: 225.0 mg/kg/injection, schedule: Q01DX009 (ip), vehicle: Klucel (hydroxypropylcellulose) (HPC)) of the same compound?
Answer: 1 of 6

Question: What does the source list for `C=C(Cl)c1c(C)cc(C)c(CC#N)c1C`?
Answer: survivor count (dose: 50.0 mg/kg/injection, schedule: Q04DX003 (ip), vehicle: DMSO): 4 of 6; survivor count (dose: 100.0 mg/kg/injection, schedule: Q04DX003 (ip), vehicle: DMSO): 4 of 6; survivor count (dose: 200.0 mg/kg/injection, schedule: Q04DX003 (ip), vehicle: DMSO): 3 of 6

Question: `ClC(c1ccccc1)C1(Br)C=c2ccccc2=C1` (stereo not drawn) was tested. Which survivor count (dose: 200.0 mg/kg/injection, schedule: Q01DX009 (ip), vehicle: Klucel (hydroxypropylcellulose) (HPC)) did it give?
Answer: 1 of 6

Question: Which results are given for `CNC(=N)c1ccc(NC(=N)c2ccc(NC(=N)c3ccc(NC(=O)Nc4ccc(C(=N)NC)cc4)cc3)cc2)cc1`?
Answer: T/C (dose: 0.85 mg/kg/injection, schedule: Q01DX009 (ip), vehicle: saline): 130 % of control; T/C (dose: 1.3 mg/kg/injection, schedule: Q01DX009 (ip), vehicle: saline): 130 % of control; T/C (dose: 1.6 mg/kg/injection, schedule: Q04DX003 (ip), vehicle: saline): 127 % of control; T/C (dose: 2.0 mg/kg/injection, schedule: Q01DX009 (ip), vehicle: saline): 137 and 138 % of control; T/C (dose: 2.4 mg/kg/injection, schedule: Q04DX003 (ip), vehicle: saline): 131 % of control; T/C (dose: 3.0 mg/kg/injection, schedule: Q01DX009 (ip), vehicle: saline): 133 % of control [5 of 6 alive]; T/C (dose: 8.0 mg/kg/injection, schedule: Q04DX003 (ip), vehicle: saline): 145 % of control; T/C (dose: 12.0 mg/kg/injection, schedule: Q04DX003 (ip), vehicle: saline): 145 % of control; survivor count (dose: 25.0 mg/kg/injection, schedule: Q01DX009 (ip), vehicle: saline): 5 of 6; survivor count (dose: 37.0 mg/kg/injection, schedule: Q04DX003 (ip), vehicle: saline): 0 of 6

Question: `CC(CCc1cccc2ccccc12)(C(=O)O)C(=O)O` was tested. Which survivor count (dose: 400.0 mg/kg/injection, schedule: Q04DX003 (ip), vehicle: saline sonified) did it give?
Answer: 4 of 6
